Data from publication PMC5082905, “Identification of Residues in the Lipopolysaccharide ABC Transporter That Coordinate ATPase Activity with Extractor Function” (mBio, 2016).

Chains of the proteins cited; added tags and fusions are not shown. Lines headed by an entry give the natural chain unless they say otherwise; changes in a name come on top.
UniProt P0ADV9: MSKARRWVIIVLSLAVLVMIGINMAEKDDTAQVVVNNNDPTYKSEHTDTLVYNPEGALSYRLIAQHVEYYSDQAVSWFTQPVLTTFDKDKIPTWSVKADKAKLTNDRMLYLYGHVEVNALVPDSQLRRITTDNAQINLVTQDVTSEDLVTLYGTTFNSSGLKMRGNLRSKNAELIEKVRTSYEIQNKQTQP

B1: LptB^WT (enzyme, E. coli, UniProt P0A9V1 1-241, looked up)
chain: MATLTAKNLAKAYKGRRVVEDVSLTVNSGEIVGLLGPNGAGKTTTFYMVVGIVPRDAGNIIIDDDDISLLPLHARARRGIGYLPQEASIFRRLSVYDNLMAVLQIRDDLSAEQREDRANELMEEFHIEHLRDSMGQSLSGGERRRVEIARALAANPKFILLDEPFAGVDPISVIDIKRIIEHLRDSGLGVLITDHNVRETLAVCERAYIVSQGHLIAHGTPTEILQDEHVKRVYLGEDFRL
B2: LptB^R91S (enzyme, UniProt P0A9V1 1-241)
chain: MATLTAKNLAKAYKGRRVVEDVSLTVNSGEIVGLLGPNGAGKTTTFYMVVGIVPRDAGNIIIDDDDISLLPLHARARRGIGYLPQEASIFSRLSVYDNLMAVLQIRDDLSAEQREDRANELMEEFHIEHLRDSMGQSLSGGERRRVEIARALAANPKFILLDEPFAGVDPISVIDIKRIIEHLRDSGLGVLITDHNVRETLAVCERAYIVSQGHLIAHGTPTEILQDEHVKRVYLGEDFRL

Target: LptC-His7 (E. coli) (UniProt P0ADV9)
Test: affinity co-purification; LptB2FG-LptC-His7 complex variants purified from E. coli through LptC-His7; Coomassie blue-stained denaturing gel

Row | Binder | binding
1 | B1 | binds
2 | B2 | binds

These are yes or no findings as the source states them, for the method shown. Binding seen in cells or lysates may run through a third protein. A result given as binding can be weak or reduced; the word gives no strength.
